This passage reports binding results from patent US20210113484A1 (NATIONAL UNIVERSITY OF SINGAPORE, published 2021).

Results are given in words; binding and its absence hold for the method and conditions named. Some entries that bind do so weakly or less than the wild type. Sequences can lack the tags named with a protein.

The target in the assay is AfFtn with truncated C-terminus and E65K, E128K, E131K, D138A, net positive interior [AfFtnΔC(+)] (Archaeoglobus fulgidus). Nature of the assay: His-tag pull-down followed by SEC. On the technique in general: In gel filtration, larger molecules generally elute earlier.

B1: tES-rLuc (His-tagged AfFtn subunit with truncated C-terminus fused to Renilla luciferase) (other)
chain: MASISEKMVEALNRQINAEIYSAYLYLSMASYFDSIGLKGFSNWMRVQWQEELMHAMKMFDFVSERGGRVKLYAVEEPPSEWDSPLAAFEHVYEHEVNVTKRIHELVEMAMQEKDFATYNFLQWYVAEQVEEEASALDIVEKLRLIGEDKRALLFLDKELSLRQTS
notes: also called tES-rLuc fusion subunit; not shown: N-terminal His-tag from pBAD/HisB; Renilla luciferase (rLuc), a 36 kDa protein from sea pansy, Renilla reniformis
For B1, the binding entry is on record as “binds”.
